Assay results: US20100173956A1, “Use of Quaternary Pyridinium Salts as Vasoprotective Agents” (Pharmena Spolka Akcyjna (Pharmena S.A.), priority 2004, published 2010)
Some of these results come from one statement about several compounds together.

System: platelet-rich thrombi
Experiment: Thrombolytic activity in rats with extracorporal circulation (method of Gryglewski)
Format: in vivo, Wistar rats
Settings: 30 mg/kg i.v.
Method: Thrombolytic activity of quaternary pyridinium salts was assessed using original method of Gryglewski et al., (Gryglewski R J, Korbut R, Ocetkiewicz A, Stachura J. In vivo method for quantitation for anti-platelet potency of drugs. Naunyn Schmiedebergs Arch Pharmacol 1978; 302:25-30), the scheme of which was shown on FIG. 1.
Wistar rats of body weight 300-350 g were anaesthetised (thiopental 30 mg kg^−1 i.p.) and heparinised (unfractionated heparin. 800 i.u. kg^−1 i.v.). Arterial blood pressure was measured from cannulated right carotid artery, and extracorporal circulation was established between left carotid artery and left jugular vein. A collagen strip from rabbit tendon of Achilles was superfused with arterial blood in extracorporal circulation at a rate of 1.5 ml min^−1 and its weight was continuously monitored by an auxotonic Harvard transducer.
During the initial 20-30 min of superfusion the strip was gaining in weight by 80-120 mg because of deposition of platelet-rich thrombi and then in control conditions stayed unchanged during next 3-5 hrs. Thrombolytic response was detected by a fall in weight of a thrombi. Arterial blood pressure was also monitored, so this model enabled the analysis of thrombolytic and hypotensive action of a compound (FIG. 1).

SMILES: NC(=O)c1cccnc1 [nicotinamide]
- duration of thrombolytic response (transient): 15 to 20 min
